The results in this text go back to paper PMC3988174.

These are yes or no findings as the source states them, for the method shown. Some entries that bind do so weakly or less than the wild type.

The target in assay [1] is atToc132 A- plus G-domains bait (Arabidopsis thaliana) (UniProt Q9SLF3). Description: two-hybrid; split-ubiquitin membrane-based yeast two-hybrid library screen in S. cerevisiae NMY51; bait fused to Cub-LexA-VP16 (pBT3-STE), Arabidopsis seedling cDNA library preys fused to NubG; selection on SD-LWHA with 3-AT; hits re-streaked, retransformed with the same bait, X-Gal filter assay.

Assay [2] has the same target. Description: two-hybrid; pairwise split-ubiquitin yeast two-hybrid of isolated NubG-preys with Toc159G, Toc132G or Toc132AG bait in NMY51; growth on SD-LWHA (3-AT) and quantitative β-Gal assay, activity relative to a reference bait set to 100%.

B1: Sugar transporter EDR6-like 7 (protein, UniProt P93051 1-463)
chain: MSKASDAVREPLVDKNMAGSKPDQPWMVYLSTFVAVCGSFAFGSCAGYSSPAQAAIRNDLSLTIAEFSLFGSLLTFGAMIGAITSGPIADLVGRKGAMRVSSAFCVVGWLAIIFAKGVVALDLGRLATGYGMGAFSYVVPIFIAEIAPKTFRGALTTLNQILICTGVSVSFIIGTLVTWRVLALIGIIPCAASFLGLFFIPESPRWLAKVGRDTEFEAALRKLRGKKADISEEAAEIQDYIETLERLPKAKMLDLFQRRYIRSVLIAFGLMVFQQFGGINGICFYTSSIFEQAGFPTRLGMIIYAVLQVVITALNAPIVDRAGRKPLLLVSATGLVIGCLIAAVSFYLKVHDMAHEAVPVLAVVGIMVYIGSFSAGMGAMPWVVMSEIFPINIKGVAGGMATLVNWFGAWAVSYTFNFLMSWSSYGTFLIYAAINALAIVFVIAIVPETKGKTLEQIQAIVNP
Take B1: the binding entry in assay [1] and in assay [2] was “binds” each time.

B2: MPBQ/MSBQ methyl transferase (protein, UniProt Q9LY74 1-338)
chain: MASLMLNGAITFPKGLGSPGSNLHARSIPRPTLLSVTRTSTPRLSVATRCSSSSVSSSRPSAQPRFIQHKKEAYWFYRFLSIVYDHVINPGHWTEDMRDDALEPADLSHPDMRVVDVGGGTGFTTLGIVKTVKAKNVTILDQSPHQLAKAKQKEPLKECKIVEGDAEDLPFPTDYADRYVSAGSIEYWPDPQRGIREAYRVLKIGGKACLIGPVYPTFWLSRFFSDVWMLFPKEEEYIEWFKNAGFKDVQLKRIGPKWYRGVRRHGLIMGCSVTGVKPASGDSPLQLGPKEEDVEKPVNNPFSFLGRFLLGTLAAAWFVLIPIYMWIKDQIVPKDQPI
Take B2: the binding entry in assay [1] and in assay [2] was “binds” throughout.
